Results: patent CN110938146A
Changes are numbered by the printed parent chain. Results are given in words; binding and its absence hold for the method and conditions named. Some binding calls cover weakened binding; strength is not graded here.

By UniProt entry, the sequences of proteins in these tests, tags left out. Residues count along the entry.
UniProt Q8TDQ0, residues 22-200: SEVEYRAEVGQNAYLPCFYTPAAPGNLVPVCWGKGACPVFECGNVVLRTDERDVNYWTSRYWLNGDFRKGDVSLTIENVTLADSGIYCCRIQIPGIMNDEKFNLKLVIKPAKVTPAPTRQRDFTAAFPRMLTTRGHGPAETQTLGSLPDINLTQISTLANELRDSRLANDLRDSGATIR

B1: TIM-3-CX153 (VHH)
VHH: QSMEESGGRLVKPDETLTLTCTVSGFSLSSYSMIWVRQAPGKGLEWIGIIGTTGNTYYASWAKGRFTISKTSTTVDLKMTSLTSEDTATYFCARYYADGVFDLWGQGTLVTVSS
B2: TIM-3-CX123 (VHH)
VHH: QKQLMESGGRLVTPGGSLTLTCTVSGIDLSSYAMGWVRQAPGKGLEWIGAISSSGNTYYASWAKGRFTISKTSTTVDLRITSPTTEDTATYFCAREGASSDGIYYNLWGQGTLVTVSS
B3: TIM-3-CX101 (VHH)
VHH: QVQLVQSGGGLVQPGGSLRLSCAASEWTKQVPEMSWVRQAPGKGLEWIGSIYHSGSTYYNPSLKSRVTISRDNSKNTLYLQMNTLRAEDTATYYCARVSFDRFDYWGQGTLVTVSS
B4: TIM-3-CX106 (VHH)
VHH: B3 VHH with K29R, Q30A
B5: TIM-3-CX119 (VHH)
VHH: B3 VHH with K29R, Q30V

What follows are binders tested against TIM-3重组蛋白 (human) (UniProt Q8TDQ0) (assay: ELISA: TIM-3 coated, biotinylated sdAb, HRP-streptavidin).

binding, binds:
B1, B2, B3, B4, B5

Each binder was assayed against TIM-3重组蛋白 (human) (UniProt Q8TDQ0) (assay: competition ELISA on coated TIM-3; competitor biotinylated Galectin-9-rFc).

binding, binds:
B1, B2
